Among the data in article PMC6177004 are binding values, retold here.

Sequences of proteins named here, by UniProt entry; tags and fusion partners are left off. A change or cut given only in a name is not applied to a line headed by its entry. Residues count along the entry.
UniProt Q54I79: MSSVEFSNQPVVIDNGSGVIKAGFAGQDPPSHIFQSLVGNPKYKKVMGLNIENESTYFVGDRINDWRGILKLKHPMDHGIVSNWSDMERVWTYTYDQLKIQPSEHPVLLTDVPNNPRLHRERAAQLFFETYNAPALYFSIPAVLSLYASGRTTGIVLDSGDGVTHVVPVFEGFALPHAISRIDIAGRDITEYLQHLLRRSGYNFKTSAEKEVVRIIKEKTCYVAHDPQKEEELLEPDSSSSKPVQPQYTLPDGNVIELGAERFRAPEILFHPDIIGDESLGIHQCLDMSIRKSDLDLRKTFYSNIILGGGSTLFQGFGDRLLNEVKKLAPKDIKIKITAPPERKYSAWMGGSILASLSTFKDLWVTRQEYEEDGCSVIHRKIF
UniProt Q552E2: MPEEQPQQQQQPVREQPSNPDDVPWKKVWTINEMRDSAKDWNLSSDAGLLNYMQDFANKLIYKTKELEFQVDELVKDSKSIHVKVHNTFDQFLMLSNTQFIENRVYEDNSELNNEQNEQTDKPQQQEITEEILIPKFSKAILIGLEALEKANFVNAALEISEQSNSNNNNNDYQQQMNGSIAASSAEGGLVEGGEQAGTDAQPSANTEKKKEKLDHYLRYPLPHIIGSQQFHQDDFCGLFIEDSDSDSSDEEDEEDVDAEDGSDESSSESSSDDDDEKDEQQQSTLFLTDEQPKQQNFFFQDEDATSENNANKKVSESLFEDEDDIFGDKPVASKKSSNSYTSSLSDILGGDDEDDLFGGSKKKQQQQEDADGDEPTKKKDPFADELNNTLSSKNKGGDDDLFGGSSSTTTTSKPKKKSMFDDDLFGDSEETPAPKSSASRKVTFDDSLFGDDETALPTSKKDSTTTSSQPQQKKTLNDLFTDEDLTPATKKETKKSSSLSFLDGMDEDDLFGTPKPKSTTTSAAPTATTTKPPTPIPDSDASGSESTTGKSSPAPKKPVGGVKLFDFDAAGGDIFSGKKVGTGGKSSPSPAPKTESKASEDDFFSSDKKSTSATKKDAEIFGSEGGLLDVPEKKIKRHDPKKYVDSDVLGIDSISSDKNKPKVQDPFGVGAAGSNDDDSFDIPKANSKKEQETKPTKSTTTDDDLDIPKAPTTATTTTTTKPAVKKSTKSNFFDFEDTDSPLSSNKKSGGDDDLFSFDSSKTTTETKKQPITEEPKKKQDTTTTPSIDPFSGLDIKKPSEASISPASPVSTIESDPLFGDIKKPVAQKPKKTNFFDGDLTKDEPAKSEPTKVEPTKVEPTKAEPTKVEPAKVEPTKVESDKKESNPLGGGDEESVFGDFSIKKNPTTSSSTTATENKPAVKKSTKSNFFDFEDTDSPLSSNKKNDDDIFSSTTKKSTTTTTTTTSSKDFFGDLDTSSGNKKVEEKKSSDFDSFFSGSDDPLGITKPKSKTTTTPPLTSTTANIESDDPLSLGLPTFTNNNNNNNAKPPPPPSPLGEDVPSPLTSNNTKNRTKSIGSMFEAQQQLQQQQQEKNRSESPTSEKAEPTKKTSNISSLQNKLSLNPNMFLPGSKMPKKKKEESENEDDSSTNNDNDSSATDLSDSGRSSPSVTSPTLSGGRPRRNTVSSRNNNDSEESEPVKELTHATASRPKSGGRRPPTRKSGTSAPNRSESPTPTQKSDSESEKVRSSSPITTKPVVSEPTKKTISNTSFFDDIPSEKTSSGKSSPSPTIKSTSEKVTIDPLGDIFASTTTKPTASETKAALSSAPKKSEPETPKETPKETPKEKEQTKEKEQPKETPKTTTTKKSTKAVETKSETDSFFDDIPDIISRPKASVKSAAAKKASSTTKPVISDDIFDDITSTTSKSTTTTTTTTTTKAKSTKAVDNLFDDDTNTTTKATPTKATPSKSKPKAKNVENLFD
UniProt Q8T869, residues 21-658: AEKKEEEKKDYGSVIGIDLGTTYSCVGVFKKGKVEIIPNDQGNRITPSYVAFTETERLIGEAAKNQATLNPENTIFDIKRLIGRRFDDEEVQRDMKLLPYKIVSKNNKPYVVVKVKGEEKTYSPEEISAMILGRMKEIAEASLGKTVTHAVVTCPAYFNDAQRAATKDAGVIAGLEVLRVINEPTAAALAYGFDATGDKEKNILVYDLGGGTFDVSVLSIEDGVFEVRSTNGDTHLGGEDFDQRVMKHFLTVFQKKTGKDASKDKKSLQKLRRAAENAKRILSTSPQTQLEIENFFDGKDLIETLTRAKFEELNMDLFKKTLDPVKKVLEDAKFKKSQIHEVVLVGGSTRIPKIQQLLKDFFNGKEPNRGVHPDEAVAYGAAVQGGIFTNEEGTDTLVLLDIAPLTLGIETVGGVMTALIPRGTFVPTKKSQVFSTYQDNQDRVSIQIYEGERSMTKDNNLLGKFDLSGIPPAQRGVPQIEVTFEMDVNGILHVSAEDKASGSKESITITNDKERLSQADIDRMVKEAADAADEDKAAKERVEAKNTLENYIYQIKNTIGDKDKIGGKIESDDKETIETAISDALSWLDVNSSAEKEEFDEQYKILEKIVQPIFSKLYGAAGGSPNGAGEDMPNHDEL
UniProt Q55FU3: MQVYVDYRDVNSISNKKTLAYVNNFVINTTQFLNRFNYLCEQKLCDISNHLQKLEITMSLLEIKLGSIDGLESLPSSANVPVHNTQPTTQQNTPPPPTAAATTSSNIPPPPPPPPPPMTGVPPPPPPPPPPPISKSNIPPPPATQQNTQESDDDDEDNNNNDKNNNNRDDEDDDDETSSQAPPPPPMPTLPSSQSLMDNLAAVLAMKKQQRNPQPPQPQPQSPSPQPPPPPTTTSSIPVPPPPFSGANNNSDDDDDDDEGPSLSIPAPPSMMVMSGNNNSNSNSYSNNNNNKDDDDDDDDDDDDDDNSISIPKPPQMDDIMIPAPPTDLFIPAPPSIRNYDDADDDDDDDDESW

No constants are given. Whether binding was seen depends on the method and setting. In cells and extracts the contact can be indirect. These calls come from enrichment with a bait or labelling near it, and not all partners need be listed. Sequences can lack the tags named with a protein.

The test deals with T1, Str^WT-GFP (full-length Dictyostelium discoideum strumpellin fused to GFP) (Dictyostelium discoideum) (UniProt Q54IR8).
T1 sequence: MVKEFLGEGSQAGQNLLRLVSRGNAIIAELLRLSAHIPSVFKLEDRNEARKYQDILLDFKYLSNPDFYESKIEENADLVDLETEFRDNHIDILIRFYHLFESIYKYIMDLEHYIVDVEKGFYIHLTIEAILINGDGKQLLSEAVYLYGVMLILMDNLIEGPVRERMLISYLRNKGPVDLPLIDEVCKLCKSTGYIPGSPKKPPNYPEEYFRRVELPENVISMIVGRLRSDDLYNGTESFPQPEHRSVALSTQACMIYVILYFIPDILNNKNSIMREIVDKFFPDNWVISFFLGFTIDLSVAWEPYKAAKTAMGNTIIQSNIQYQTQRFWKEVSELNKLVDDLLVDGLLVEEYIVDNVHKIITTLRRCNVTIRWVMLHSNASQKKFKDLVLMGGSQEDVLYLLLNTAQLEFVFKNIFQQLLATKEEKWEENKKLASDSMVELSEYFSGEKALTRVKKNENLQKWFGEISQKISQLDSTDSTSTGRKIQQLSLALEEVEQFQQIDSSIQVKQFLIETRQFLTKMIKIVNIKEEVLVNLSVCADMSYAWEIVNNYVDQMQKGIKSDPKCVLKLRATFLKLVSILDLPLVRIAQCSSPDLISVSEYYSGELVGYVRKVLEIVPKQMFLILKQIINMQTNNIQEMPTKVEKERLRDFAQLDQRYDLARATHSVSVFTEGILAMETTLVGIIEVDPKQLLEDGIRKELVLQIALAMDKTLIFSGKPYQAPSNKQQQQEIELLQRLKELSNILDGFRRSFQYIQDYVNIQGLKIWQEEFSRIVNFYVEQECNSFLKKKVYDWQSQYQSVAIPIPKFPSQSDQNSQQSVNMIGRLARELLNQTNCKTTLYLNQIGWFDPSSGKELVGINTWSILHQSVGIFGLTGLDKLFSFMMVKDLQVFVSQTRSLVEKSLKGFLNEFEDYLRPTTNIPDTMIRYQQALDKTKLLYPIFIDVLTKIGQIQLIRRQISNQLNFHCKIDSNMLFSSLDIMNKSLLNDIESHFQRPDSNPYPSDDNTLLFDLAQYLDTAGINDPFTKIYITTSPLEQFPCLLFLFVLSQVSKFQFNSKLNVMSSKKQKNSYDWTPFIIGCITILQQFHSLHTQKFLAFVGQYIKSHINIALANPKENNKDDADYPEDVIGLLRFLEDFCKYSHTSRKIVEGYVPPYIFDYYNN
The test is described as follows: affinity purification with mass spectrometry; GFP-Trap beads pull GFP-tagged strumpellin from the cleared lysate of 2x10^8 D. discoideum cells (20 mM Tris-HCl pH 7.5, 20 mM MgCl2, 5% glycerol, 1 mM DTT, 100 mM NaCl); washes with 50 mM Tris-HCl pH 7.5, 150 mM NaCl, 0.2% NP40; on-bead digestion; four independent experiments; AX2|GFP as negative control.
In the case of “Arp1, a component of the dynactin complex (from UniProt Q54I79 1-383)”, the binding result was “binds”.

FAM21 (from UniProt Q552E2): the binding entry is reported as “binds”.

As to “Grp78 or Bip2 (78 kDa glucose-regulated protein homologue) (from UniProt Q8T869 21-658)”, the binding result is on record as “binds”.

As for “coiled coil domain containing 53 (CCDC53) (from UniProt Q55FU3)”, the binding entry is “binds”.

As to “putative myosin light chain kinase (MLCK) (enzyme)”, the binding result is “binds”.
